PMC7079221
Results are given in words; binding and its absence hold for the method and conditions named. In cells and extracts the contact can be indirect. Some entries that bind do so weakly or less than the wild type.

Amino acid sequences for entries named in this document (tags omitted).
UniProt Q00899: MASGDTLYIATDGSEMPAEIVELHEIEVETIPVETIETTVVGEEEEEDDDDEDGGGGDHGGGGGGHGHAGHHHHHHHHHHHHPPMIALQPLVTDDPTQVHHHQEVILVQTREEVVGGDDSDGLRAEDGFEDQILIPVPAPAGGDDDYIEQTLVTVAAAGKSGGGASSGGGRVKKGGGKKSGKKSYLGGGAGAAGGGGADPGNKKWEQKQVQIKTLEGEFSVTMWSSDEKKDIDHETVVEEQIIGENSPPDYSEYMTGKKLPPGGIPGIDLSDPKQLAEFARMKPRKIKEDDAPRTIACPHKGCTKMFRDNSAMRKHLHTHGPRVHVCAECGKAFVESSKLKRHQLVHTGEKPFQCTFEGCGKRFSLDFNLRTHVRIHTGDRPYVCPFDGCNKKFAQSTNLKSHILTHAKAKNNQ
UniProt Q60613: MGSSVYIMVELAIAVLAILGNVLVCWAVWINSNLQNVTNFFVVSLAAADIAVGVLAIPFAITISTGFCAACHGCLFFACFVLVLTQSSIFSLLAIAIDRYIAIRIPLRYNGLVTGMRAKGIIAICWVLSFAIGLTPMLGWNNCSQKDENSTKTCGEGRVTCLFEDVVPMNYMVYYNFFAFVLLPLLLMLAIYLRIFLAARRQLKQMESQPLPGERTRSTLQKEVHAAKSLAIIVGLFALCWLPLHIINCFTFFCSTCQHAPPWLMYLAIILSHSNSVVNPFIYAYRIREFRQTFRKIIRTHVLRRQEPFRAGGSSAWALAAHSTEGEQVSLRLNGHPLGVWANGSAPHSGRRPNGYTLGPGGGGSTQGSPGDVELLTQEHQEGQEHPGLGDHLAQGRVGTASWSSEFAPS
UniProt O09106: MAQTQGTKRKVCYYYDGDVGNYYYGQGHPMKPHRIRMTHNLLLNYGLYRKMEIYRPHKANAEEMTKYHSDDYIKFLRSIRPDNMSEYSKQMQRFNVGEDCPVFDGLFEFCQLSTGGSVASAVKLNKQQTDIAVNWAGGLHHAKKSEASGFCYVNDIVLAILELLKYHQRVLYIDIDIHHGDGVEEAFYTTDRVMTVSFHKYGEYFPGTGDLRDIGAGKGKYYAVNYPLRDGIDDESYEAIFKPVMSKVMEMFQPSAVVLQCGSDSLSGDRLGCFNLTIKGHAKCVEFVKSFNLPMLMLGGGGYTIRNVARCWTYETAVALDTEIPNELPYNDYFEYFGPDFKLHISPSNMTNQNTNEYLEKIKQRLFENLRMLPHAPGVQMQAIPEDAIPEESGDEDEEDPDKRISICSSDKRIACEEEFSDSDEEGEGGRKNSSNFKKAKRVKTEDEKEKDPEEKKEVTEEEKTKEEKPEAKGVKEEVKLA

Key:
[1] = target: T1, Adenosine receptor A1 (mouse (endogenous in primary cortical astrocytes)) (UniProt Q60612); test: co-IP; supernatant of astrocytes exposed to OGD for the indicated times; anti-A1AR antibody (1:50) overnight, protein A/G agarose beads 2 h at 4°C; western blotting
T1 sequence: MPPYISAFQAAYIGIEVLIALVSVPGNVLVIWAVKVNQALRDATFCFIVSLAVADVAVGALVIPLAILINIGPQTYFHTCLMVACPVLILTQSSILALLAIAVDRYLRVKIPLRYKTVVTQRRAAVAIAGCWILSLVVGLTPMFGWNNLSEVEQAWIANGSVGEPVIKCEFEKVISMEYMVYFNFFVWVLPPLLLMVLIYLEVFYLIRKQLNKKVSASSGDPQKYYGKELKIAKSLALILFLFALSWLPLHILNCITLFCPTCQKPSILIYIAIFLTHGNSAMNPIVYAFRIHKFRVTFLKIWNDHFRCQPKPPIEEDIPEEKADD

[2] = target: Ying Yang 1 (mouse (endogenous in primary cortical astrocytes)) (UniProt Q00899); test: co-IP; supernatant of astrocytes with or without OGD; anti-YY1 antibody (1:50) overnight, protein A/G agarose beads 2 h at 4°C; western blotting

Adenosine receptor A2a (from UniProt Q60613 1-410)
binding [1]: binds

Histone deacetylase (HDAC)1 (from UniProt O09106 1-482) (enzyme)
binding [2]: binds
